Data as given in PubChem BioAssay AID504834 (National Center for Advancing Translational Sciences (NCATS), 2011).
In all, about 320,000 compounds went through this assay and about 22,000 (6.9%) were called active. The shares of active, inactive and inconclusive entries below differ from those in the screen. Calls follow the shape of the dose curve; as a rule, active = well fitted inhibition curve with a large enough effect; inconclusive = small, poorly fitted or top-dose-only effect, or another doubt; inactive = no such curve, though single readings can be large or run the other way. A potency beside an inconclusive call is a rough fit, not a confirmed value.

test: Primary qHTS for delayed death inhibitors of the malarial parasite plastid, 96 hour incubation; conditions: P. falciparum luciferase reporter growth; series mostly up to 28.7 µM
Procedure, shortened: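 Parasite growth measured via integrated firefly luciferase reporter in P. falciparum. Infected erythrocytes at 2% hematocrit, 0.05% parasitemia final were treated 96 hours at 37 C under 5% CO2, and luminescence was read.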
Potency is read from the fitted curve at half-maximal effect.

With `Cc1ccccc1-n1nnnc1SC1CCOC1=O` (centres undefined) as the molecule, how does the Potency read?
Its Potency is inconclusive: 18.5 µM [inhibitor, single point].

For `FC(F)(F)c1nc(NCc2ccccc2)c2nnn(Cc3ccccc3)c2n1`, which Potency is on record?
The Potency was inconclusive: 14.7 µM [inhibitor, partial curve, poor fit].

With `COc1ccc(CCNC(=O)Cc2ccc(NS(=O)(=O)c3ccc(F)cc3)cc2)cc1OC` as the molecule, how does the Potency read?
The Potency was inconclusive: 11.7 µM [inhibitor, single point].

For `Cc1cc(C(=O)NCCC(c2ccccc2)c2ccccc2)c(C)o1`, which Potency is on record?
Its Potency is inconclusive: 11.7 µM [inhibitor, single point].

For `CO/N=C/C(c1ccc(Cl)nc1)S(=O)(=O)c1ccccc1` (centres undefined), which Potency is on record?
Its Potency is “inactive”.

For `CCSc1ncc(Cl)c(C(=O)Nc2sc3c(c2C(=O)NCc2cccnc2)CCCC3)n1`, which Potency is on record?
The Potency was inconclusive: 18.5 µM [inhibitor, single point].

Which Potency does the source give for `COC(=O)c1ccccc1NC(=O)c1ccc2c(c1)CC(C)O2` (centres undefined) here?
Its Potency is inconclusive: 11.7 µM [inhibitor, single point].

With `CCc1nc(SCC(=O)Nc2ccc(C(=O)O)cc2)n[nH]1` as the molecule, how does the Potency read?
The Potency was inconclusive: 13.1 µM [inhibitor, single point].

Which Potency does the source give for `COc1ccc(-c2nc3ccccc3o2)cc1NC(=O)c1ccc(Br)o1` here?
Its Potency is inconclusive: 0.0026 µM [inhibitor, full curve, poor fit].

Which Potency does the source give for `O=C(c1ccco1)N1CCN(c2cc(N3CCOCC3)c(F)cc2[N+](=O)[O-])CC1` here?
The Potency was inconclusive: 0.233 µM [inhibitor, full curve, poor fit].

For `CC(NCc1ccccc1C(F)(F)F)C(O)c1ccccc1` (centres undefined), which Potency is on record?
Its Potency is “inactive”.

For `CC1=CC(C)C(C(=O)O)C(C(=O)N2CCN(C)CC2)C1` (centres undefined), which Potency is on record?
Its Potency is “inactive”.

Which Potency does the source give for `CCCNC(=O)c1ccccc1NC(=O)c1ccc2c(c1)NC(=O)C(C)S2` (centres undefined) here?
Its Potency is inconclusive: 8.28 µM [inhibitor, partial curve, poor fit].

Which Potency does the source give for `CCN1CCCC1CNCc1cccc(OC)c1OCc1ccc(F)cc1` (centres undefined) here?
Its Potency is inconclusive: 11.7 µM [inhibitor, single point].

For `O=C(c1ccc(Cl)c([N+](=O)[O-])c1)N(Cc1ccccc1)C1CCS(=O)(=O)C1` (centres undefined), which Potency is on record?
Its Potency is “inactive”.

With `COc1ccccc1CCNCc1ccc(OC)c(OC)c1OC` as the molecule, how does the Potency read?
The Potency was inconclusive: 2.94 µM [inhibitor, partial curve, poor fit].

With `CSc1ccccc1OCc1cc(C(=O)N[C@H]2CCCCNC2=O)no1` as the molecule, how does the Potency read?
The Potency was inconclusive: 18.5 µM [inhibitor, partial curve, poor fit].

For `CC1CCc2c(sc3nc(SCC(=O)O)n(-c4ccccc4)c(=O)c23)C1` (centres undefined), which Potency is on record?
Its Potency is inconclusive: 0.0294 µM [inhibitor, full curve, poor fit].

Which Potency does the source give for `COC(=O)c1ccccc1-c1ccc(/C=N/Nc2nc(N3CCCC3)nc(N3CCCC3)n2)o1` here?
Its Potency is inconclusive: 4.65 µM [inhibitor, partial curve].

For `COc1ccc(C)cc1NC(=O)C1CCN(S(=O)(=O)c2ccc3c(c2)C(C)(C)C(=O)N3C)CC1`, which Potency is on record?
The Potency was “inactive”.

With `O=C(CN1C(=O)NC2(CCCCCC2)C1=O)NC1CC1` as the molecule, how does the Potency read?
The Potency was inconclusive: 18.5 µM [inhibitor, single point].

For `CCCn1c2c(c(O)c(C(=O)NC)c1=O)CCCC2`, which Potency is on record?
The Potency was inconclusive: 18.5 µM [inhibitor, single point].

With `CS(=O)(=O)N1CCC(C(=O)NCc2ccc(Cl)cc2Cl)CC1` as the molecule, how does the Potency read?
Its Potency is “inactive”.

Which Potency does the source give for `CC(=O)c1cccc(NC(=O)c2cc(-c3ccco3)on2)c1` here?
The Potency was “inactive”.

With `O=C(c1ccc2c(=O)n(Cc3ccc4c(c3)OCO4)c(=O)[nH]c2c1)N1CCN(c2ccccc2)CC1` as the molecule, how does the Potency read?
The Potency was active: 11.7 µM.

For `Cc1ccc(Cl)cc1N1CCN(C(=O)c2noc(C)c2[N+](=O)[O-])CC1`, which Potency is on record?
The Potency was inconclusive: 9.28 µM [inhibitor, single point].

For `Cc1ccnc(NS(=O)(=O)c2cc(-c3cc(C)no3)ccc2C(C)C)c1`, which Potency is on record?
The Potency was active: 10.4 µM.

For `CCN(CC)c1c([N+](=O)[O-])c(=O)sc2ccccc12`, which Potency is on record?
The Potency was “inactive”.

With `C=C(C)C1CC=C(C)CC1` (centres undefined) as the molecule, how does the Potency read?
The Potency was “inactive”.

Which Potency does the source give for `Cc1ccc(OCCCC(=O)Nc2ccc3c(c2)OCO3)cc1` here?
The Potency was inconclusive: 18.5 µM [inhibitor, single point].

With `COC(=O)c1cccc(C23CC4(C2)[C@H](CN(C)[C@@H]4c2ccccc2)C3c2ccccc2)c1` (some centres undefined) as the molecule, how does the Potency read?
The Potency was inconclusive: 2.62 µM [inhibitor, partial curve].

For `CN(C)CCNc1oc(COc2ccc(Cl)cc2)nc1C#N`, which Potency is on record?
Its Potency is “inactive”.

For `CN1CCN(C(=S)SCC(=O)N2CCCc3ccccc32)CC1`, which Potency is on record?
Its Potency is inconclusive: 10.4 µM [inhibitor, partial curve, poor fit].

Which Potency does the source give for `CCCCn1c(SCC2CCCCO2)nc2cc(S(N)(=O)=O)ccc21` (centres undefined) here?
The Potency was inconclusive: 18.5 µM [inhibitor, single point].

For `CC(C)N1CCN(Cc2nc(-c3ccccc3)cs2)CC1CCO` (centres undefined), which Potency is on record?
Its Potency is “inactive”.

Which Potency does the source give for `N#Cc1cc(N)ccc1Sc1ccc(Cl)cc1` here?
The Potency was inconclusive: 0.104 µM [inhibitor, full curve, poor fit].

For `Cc1ccc(Cl)cc1N1CCN(C(=O)C2CCCN(S(=O)(=O)c3cnc[nH]3)C2)CC1` (centres undefined), which Potency is on record?
The Potency was inconclusive: 9.28 µM [inhibitor, single point].

For `CC(NC(=O)CCNC(=O)c1ccccc1Cl)c1ccc(-n2ccnc2)cc1` (centres undefined), which Potency is on record?
The Potency was inconclusive: 13.1 µM [inhibitor, partial curve, poor fit].

With `CC(C)(C)c1ccc(S(=O)(=O)NNC(=O)C2CCN(Cc3cccc(F)c3)CC2)cc1` as the molecule, how does the Potency read?
Its Potency is inconclusive: 0.465 µM [inhibitor, partial curve, poor fit].

Which Potency does the source give for `CC1Cc2ccccc2N1C(=O)CCS(=O)(=O)c1ccc2c(c1)NC(=O)CS2` (centres undefined) here?
The Potency was “inactive”.

With `CCCOc1ccc(CNC(=O)Cc2cccs2)cc1` as the molecule, how does the Potency read?
The Potency was inconclusive: 2.94 µM [inhibitor, partial curve].

For `C=CCC1(CC=C)CCCN1C(=O)Cn1nnnc1CN(C)C(C)C`, which Potency is on record?
Its Potency is inconclusive: 18.5 µM [inhibitor, single point].

Which Potency does the source give for `Cc1ccccc1OCCSc1nnc(C)n1-c1ccccc1` here?
Its Potency is “inactive”.

With `O=C(CCS(=O)(=O)c1cccc2nonc12)NCCc1ccccc1Cl` as the molecule, how does the Potency read?
The Potency was inconclusive: 10.4 µM [inhibitor, single point].
